Test results from article PMC5114727, “Biological characterization of chemically diverse compounds targeting the Plasmodium falciparum coenzyme A synthesis pathway” (Parasites & Vectors, 2016).
Where “and” joins values, the source holds several entries; their conditions need not be identical. Equal values may be shown once.

Columns and labels:
[1] = test system: HEK293 cells; conditions: as previously reported; cited from earlier work
[2] = test system: T. b. brucei trypomastigote; test: T. b. brucei resazurin (Alamar Blue) viability assay; format: cell-based, Trypanosoma brucei brucei; conditions: HEK293 cytotoxicity from ref 22
Protocol: Compound activity against two members of another clinically important group of parasites, the kinetoplastids T. cruzi and T. b. brucei was determined. The sensitive high content imaging assay used to determine compound activity against T. cruzi assesses the intracellular amastigote life form of the parasite in the 3T3 host cell. […] The T. b. brucei assay employs the REDOX indicator Alamar Blue to assess viability, which was developed into a 384-well assay format.
Compound activity against T. b. brucei was assessed in a resazurin-based viability assay in concentration-response assays, without technical repeats, in two experimental replicates at a highest concentration of 40 μM, as previously described.

[3] = test system: T. cruzi trypomastigotes; test: T. cruzi trypomastigote PrestoBlue assay; format: cell-based, Trypanosoma cruzi; conditions: HEK293 cytotoxicity from ref 22
Protocol: Compound activity against T. cruzi trypomastigotes was assessed in two independent experiments, without technical repeats, at a final highest compound concentration of 40 μM in concentration-response PrestoBlue assay, as previously described.

[4] = test system: T. cruzi amastigotes; test: T. cruzi amastigote image-based assay in 3T3 host cells; format: cell-based, Trypanosoma cruzi
Protocol: The next step taken was to determine whether the activity of the compounds was confined to P. falciparum, or whether it extended to other protozoan parasites. Compound activity against two members of another clinically important group of parasites, the kinetoplastids T. cruzi and T. b. brucei was determined. The sensitive high content imaging assay used to determine compound activity against T. cruzi assesses the intracellular amastigote life form of the parasite in the 3T3 host cell. It is important to simultaneously assess compound activity against 3T3 cells to determine potential cytotoxicity against the host cell line, since this could result in a false positive outcome. The T. b. brucei assay employs the REDOX indicator Alamar Blue to assess viability, which was developed into a 384-well assay format.
Compound activity against T. cruzi amastigotes was assessed in an image-based assay in single point concentration-response and three biological replicates, at a final highest compound concentration of […], as previously described.

| SMILES | SI (P. falciparum asexual stages over HEK293) [1] | SI over HEK293 (T. b. brucei trypomastigote) [2] | SI over HEK293 (T. cruzi trypomastigote) [3] | SI over 3T3 host cell (T. cruzi amastigote) [4] |
| --- | --- | --- | --- | --- |
| Cc1csc(Sc2ncnc3sccc23)n1 [Amb180780] | 333 | – | – | – |
| CC(=O)c1ccc2c3c(onc13)-c1ccccc1C2=O [Amb3377585] | 18.3 and 18 | 14 | 4 | 1 |
| CC(=O)C1=C(c2ccccc2)C(=O)c2ccccc2C1=O [Amb4317088] | 1.9 | 15 | 6 | 2 |
| COc1ccc2c(=O)cc(C(Cl)(Cl)Cl)oc2c1 [MMV665820] | ~ 6 | – | – | – |
| OC1CCCCC1C1(NC(=S)Nc2ccccc2)CCCCC1 (stereo not drawn) [MMV665980] | > 6 | – | > 9 | – |
| CC1=CC(=O)C(C(C)C)=C/C1=N/OS(=O)(=O)c1ccccc1 [STK 740987] | > 105 | > 39 | > 59 | – |
